This data set can be described thus: general procedure: solution-phase peptide synthesis; EDCI, HOBT, Et3N.

Under “late stage modification step”, 182-[DGA]-GGGPGGG-OH had a step yield of 94%.

The substance 182DGA-GGGPGGG-OCH2Ph had a step yield (coupling step) of 82%. “[CH3(CH2)17]2NCOCH2OCH2CO-Gly-Gly-Gly-Pro-Gly-Gly-Gly-O(CH2)6CH3 (GGGPGGG; N-terminal dioctadecyl anchor, C-terminal heptyl ester; printed: Gly-Gly-Gly-Pro-Gly-Gly-Gly-)” returned a step yield (coupling step) of 61%.

Under “coupling step”, Boc-PGGG-OCH2Ph showed a step yield of 71%. The same measure, in the same setting: the figure for Cbz-PGGG-OC7H15 is 90%.

Values taken from patent publication US10548319B2 (The Curators of the University of Missouri, priority 2014, dated 2020).
